Results taken from patent publication US9661856B1, “Synergy of plant antimicrobials with silver” (The Arizona Board of Regents on behalf of the University of …, priority 2012, dated 2017).
Some entries share one result that the patent states for a list of compounds.

System: Escherichia coli strain 25922
Assay: Reduction of Escherichia coli in PBS after exposure to plant antimicrobials with and without silver (spread plate count)
Assay type: cell-based
Conditions: for reductions in bacterial populations: 0.04% carvacrol, 0.1% citral, 0.2% cinnamaldehyde, 1.0% allspice, without silver, within 1 to 10 min of exposure
Experimental: Escherichia coli strain 25922 was obtained from the American Type Culture Collection (ATCC; Manassas, Va., USA) and was maintained on Tryptic Soy Agar (TSA; Difco, Sparks, Md., USA) with incubation for 18 to 24 h at 37° C. Prior to the start of each experiment, an Erlenmeyer flask containing 100 ml of Tryptic Soy Broth (TSB; Difco, Sparks, Md., USA) was inoculated with the organism and incubated on an orbital shaker (Model […]; New Brunswick Scientific, Edison, N.J., USA) at 300 rpm at 37° C. overnight. […] Beckman Coulter, Inc., Fullerton, Calif., USA). The pelleted cells were washed by re-suspension in 100 ml of physiological saline (0.85% NaCl) followed by centrifugation as described previously. This step was repeated one additional time. The final pellet was resuspended in 10 ml of sterile phosphate buffered saline (PBS; pH 7.4; Sigma-Aldrich, St. Louis, Mo., USA). […] A stock solution of silver (Ag) ions was prepared immediately prior to the start of each experiment by adding AgNO3 (J.T. Baker, Phillipsburg, N.Y., USA) to distilled water to obtain an Ag ion concentration of 100 mg/l (100 ppm). The Ag concentration was measured at the beginning of each experiment by a colorimetric procedure using a Hach DR/2000 spectrophotometer (Anonymous 1989). […] (Berkley, Calif., USA). […] Louis, Mo., USA). The plant antimicrobials were dissolved and diluted (volume to volume) to specific test concentrations using PBS. […] A control with E. coli in PBS but no added antimicrobials was also included. Purified stocks of the bacteria were added separately to the antimicrobial solutions (final concentration of […]) and the flasks were placed on an orbital shaker (300 rpm) for the duration of the experiment. Experiments were performed in triplicate at room temperature (24° C.) in 50 ml polypropylene conical tubes (Becton, Dickinson and Company, Franklin Lakes, N.J., USA). […] The plates were incubated at 37° C. for 24 hours and the surviving bacterial colonies were counted. […]

| SMILES | reductions in bacterial populations [log10] | exposure time within which the reduction was statistically significant (P≦0.05) compared to the control (0.05% citral, 0.02% carvacrol or 0.1% cinnamaldehyde, alone or with 100 ppb Ag, PBS) [min] |
| --- | --- | --- |
| O=C/C=C/c1ccccc1 [Cinnamaldehyde] | > 5.0 | – |
| CC(C)=CCCC(C)=CC=O [Citral] | > 5.0 | ≤ 5 |
